Test results published in patent US20240301073A1 (SCHOLAR ROCK, published 2024).
Results are given in words; binding and its absence hold for the method and conditions named. Some results given as binding are weak or reduced against the parent protein; the word gives no strength.

Chains of the proteins cited; added tags and fusions are not shown. Lines headed by an entry give the natural chain unless they say otherwise; changes in a name come on top.
UniProt Q14392: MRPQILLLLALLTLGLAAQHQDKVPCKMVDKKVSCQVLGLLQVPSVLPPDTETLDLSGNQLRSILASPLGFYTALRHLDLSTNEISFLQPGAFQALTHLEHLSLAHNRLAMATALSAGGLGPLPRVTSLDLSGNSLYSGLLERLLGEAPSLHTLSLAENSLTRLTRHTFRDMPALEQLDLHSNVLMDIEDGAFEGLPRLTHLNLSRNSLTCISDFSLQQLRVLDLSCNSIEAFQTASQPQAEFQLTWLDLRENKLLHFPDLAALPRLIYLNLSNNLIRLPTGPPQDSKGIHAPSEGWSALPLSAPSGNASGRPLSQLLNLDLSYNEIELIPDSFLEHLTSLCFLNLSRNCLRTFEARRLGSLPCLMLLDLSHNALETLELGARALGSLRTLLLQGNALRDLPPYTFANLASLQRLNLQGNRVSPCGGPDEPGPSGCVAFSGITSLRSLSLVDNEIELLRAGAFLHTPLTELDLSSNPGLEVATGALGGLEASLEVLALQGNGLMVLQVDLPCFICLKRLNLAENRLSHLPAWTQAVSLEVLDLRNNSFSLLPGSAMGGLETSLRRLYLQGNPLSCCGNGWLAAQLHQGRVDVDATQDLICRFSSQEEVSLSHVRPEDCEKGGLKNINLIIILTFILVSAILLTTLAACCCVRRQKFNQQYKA
UniProt Q9NS15: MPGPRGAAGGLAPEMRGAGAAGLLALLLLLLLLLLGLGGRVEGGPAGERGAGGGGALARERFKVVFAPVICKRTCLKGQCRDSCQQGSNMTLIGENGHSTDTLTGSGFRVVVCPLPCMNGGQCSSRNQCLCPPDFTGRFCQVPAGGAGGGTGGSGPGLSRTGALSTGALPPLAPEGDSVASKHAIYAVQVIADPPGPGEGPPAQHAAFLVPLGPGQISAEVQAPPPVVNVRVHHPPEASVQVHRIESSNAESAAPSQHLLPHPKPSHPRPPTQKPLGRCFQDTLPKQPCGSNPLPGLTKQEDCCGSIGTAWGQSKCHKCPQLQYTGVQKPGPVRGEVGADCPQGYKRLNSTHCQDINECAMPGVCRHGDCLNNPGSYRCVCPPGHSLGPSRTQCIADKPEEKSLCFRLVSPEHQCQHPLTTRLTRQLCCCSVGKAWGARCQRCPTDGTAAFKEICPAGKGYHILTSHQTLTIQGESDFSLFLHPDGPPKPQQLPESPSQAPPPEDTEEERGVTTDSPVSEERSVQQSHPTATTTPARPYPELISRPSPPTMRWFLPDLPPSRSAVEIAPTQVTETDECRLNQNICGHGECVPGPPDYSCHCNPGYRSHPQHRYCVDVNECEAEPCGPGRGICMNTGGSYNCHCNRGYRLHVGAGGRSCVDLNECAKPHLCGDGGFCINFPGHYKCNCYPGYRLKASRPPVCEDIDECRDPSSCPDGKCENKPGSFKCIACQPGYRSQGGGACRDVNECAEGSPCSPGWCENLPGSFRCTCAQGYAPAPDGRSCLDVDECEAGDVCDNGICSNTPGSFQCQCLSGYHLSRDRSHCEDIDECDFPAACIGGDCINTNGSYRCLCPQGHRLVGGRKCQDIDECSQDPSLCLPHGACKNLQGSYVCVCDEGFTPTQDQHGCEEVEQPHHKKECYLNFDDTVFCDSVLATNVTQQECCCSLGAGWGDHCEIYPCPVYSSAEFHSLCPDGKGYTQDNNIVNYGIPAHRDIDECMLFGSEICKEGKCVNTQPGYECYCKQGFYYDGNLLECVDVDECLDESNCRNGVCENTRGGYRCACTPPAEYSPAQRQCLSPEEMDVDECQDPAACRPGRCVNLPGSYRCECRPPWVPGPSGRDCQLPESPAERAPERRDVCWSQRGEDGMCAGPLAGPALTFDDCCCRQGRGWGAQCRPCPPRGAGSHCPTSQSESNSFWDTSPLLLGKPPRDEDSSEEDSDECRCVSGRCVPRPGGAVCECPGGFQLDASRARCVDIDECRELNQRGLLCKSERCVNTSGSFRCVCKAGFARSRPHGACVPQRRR
UniProt Q86YC3: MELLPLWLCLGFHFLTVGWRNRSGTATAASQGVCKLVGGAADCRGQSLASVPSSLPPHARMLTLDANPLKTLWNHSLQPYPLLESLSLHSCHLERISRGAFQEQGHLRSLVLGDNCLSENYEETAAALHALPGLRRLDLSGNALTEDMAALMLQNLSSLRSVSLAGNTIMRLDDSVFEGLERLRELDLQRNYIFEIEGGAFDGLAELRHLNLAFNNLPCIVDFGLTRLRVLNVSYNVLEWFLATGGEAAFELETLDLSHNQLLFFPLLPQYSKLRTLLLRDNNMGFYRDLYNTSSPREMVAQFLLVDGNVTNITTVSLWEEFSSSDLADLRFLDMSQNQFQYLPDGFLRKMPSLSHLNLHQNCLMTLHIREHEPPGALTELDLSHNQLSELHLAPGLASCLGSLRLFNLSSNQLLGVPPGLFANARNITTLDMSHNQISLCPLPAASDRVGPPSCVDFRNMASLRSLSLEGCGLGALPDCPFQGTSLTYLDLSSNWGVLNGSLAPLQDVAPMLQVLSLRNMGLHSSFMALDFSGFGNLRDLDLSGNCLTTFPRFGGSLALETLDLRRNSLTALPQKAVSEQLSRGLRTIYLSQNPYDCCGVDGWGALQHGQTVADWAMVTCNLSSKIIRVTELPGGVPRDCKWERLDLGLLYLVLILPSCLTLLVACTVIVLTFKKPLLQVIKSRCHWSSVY
UniProt Q14766: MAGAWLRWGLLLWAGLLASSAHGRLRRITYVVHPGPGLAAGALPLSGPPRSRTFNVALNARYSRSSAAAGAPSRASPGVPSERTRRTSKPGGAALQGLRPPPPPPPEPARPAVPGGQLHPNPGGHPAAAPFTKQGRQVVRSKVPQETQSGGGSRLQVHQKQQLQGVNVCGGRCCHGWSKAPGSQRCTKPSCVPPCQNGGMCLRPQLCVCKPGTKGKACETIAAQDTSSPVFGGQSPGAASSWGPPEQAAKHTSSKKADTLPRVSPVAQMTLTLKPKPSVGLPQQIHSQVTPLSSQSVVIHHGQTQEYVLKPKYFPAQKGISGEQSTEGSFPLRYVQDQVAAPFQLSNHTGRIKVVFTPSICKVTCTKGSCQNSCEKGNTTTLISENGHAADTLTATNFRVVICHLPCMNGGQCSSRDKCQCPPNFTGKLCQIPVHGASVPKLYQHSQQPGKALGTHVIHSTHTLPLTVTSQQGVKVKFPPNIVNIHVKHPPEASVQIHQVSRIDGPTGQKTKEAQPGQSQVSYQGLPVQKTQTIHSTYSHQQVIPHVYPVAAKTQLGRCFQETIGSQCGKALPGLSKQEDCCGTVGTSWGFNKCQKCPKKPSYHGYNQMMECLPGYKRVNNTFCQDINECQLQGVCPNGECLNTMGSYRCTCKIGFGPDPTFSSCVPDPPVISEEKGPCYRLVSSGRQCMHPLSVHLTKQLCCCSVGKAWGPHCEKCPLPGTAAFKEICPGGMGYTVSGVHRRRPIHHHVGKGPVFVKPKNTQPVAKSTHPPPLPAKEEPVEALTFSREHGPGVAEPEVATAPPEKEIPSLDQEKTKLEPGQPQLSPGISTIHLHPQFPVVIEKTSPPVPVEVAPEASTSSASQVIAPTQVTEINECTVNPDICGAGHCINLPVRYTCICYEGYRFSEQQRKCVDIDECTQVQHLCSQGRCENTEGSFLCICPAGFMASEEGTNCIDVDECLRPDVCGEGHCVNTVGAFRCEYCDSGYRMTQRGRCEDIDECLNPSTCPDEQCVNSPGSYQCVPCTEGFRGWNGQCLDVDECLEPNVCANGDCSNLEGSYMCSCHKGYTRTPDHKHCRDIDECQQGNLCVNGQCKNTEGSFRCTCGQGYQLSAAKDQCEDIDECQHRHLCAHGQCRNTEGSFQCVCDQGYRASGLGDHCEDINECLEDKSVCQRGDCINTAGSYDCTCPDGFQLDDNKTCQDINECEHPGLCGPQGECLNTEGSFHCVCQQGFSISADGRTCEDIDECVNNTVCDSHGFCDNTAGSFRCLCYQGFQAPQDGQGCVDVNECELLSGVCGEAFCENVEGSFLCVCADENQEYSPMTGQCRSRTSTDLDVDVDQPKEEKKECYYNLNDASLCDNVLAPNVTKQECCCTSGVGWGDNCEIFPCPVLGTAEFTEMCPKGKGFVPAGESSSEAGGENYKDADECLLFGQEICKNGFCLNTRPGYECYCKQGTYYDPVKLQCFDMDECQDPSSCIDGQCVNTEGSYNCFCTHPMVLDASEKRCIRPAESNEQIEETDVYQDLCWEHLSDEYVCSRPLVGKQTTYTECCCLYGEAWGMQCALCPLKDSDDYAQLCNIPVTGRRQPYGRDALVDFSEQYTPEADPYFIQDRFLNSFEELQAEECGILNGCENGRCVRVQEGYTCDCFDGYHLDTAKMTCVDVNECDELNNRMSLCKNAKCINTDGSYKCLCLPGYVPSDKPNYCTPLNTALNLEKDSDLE

Tests used:
[1] = target: T1, human GARP-proTGFβ1 complex (human, UniProt Q14392 20-627; P01137 30-390, limits assumed); experiment: Biacore (SPR), relative response (RU) against time (s)
T1 construct: also called hGARP-proTGFβ1

[2] = target: T2, human LTBP3-proTGFβ1 complex (human, UniProt Q9NS15 44-1303; P01137 30-390, limits assumed); experiment: as above
T2 construct: also called hLTBP3-proTGFβ1

[3] = target: T3, human LRRC33-proTGFβ1 complex (human, UniProt Q86YC3 19-650; P01137 30-390, limits assumed); experiment: as above
T3 construct: also called hLRRC33-proTGFβ1

[4] = target: T4, human LTBP1-proTGFβ1 complex (human, UniProt Q14766 347-1721; P01137 30-390); experiment: as above
T4 construct: also called hLTBP1-proTGFβ1

[5] = target: T2, human LTBP3-proTGFβ1 complex; experiment: SPR (Biacore), Fab
[6] = target: T4, human LTBP1-proTGFβ1 complex; experiment: SPR (Biacore), Fab
[7] = target: T1, human GARP-proTGFβ1 complex; experiment: SPR (Biacore), Fab; FIG. 2
[8] = target: T2, human LTBP3-proTGFβ1 complex; experiment: SPR (Biacore), Fab; FIG. 2
[9] = target: T3, human LRRC33-proTGFβ1 complex; experiment: SPR (Biacore), Fab; FIG. 2
[10] = target: T4, human LTBP1-proTGFβ1 complex; experiment: SPR (Biacore), Fab; FIG. 2
[11] = target: T2, human LTBP3-proTGFβ1 complex; experiment: SPR (Biacore), monovalent Fab
[12] = target: T4, human LTBP1-proTGFβ1 complex; experiment: SPR (Biacore), monovalent Fab

Measured: binding

B1: Ab42 human Fab (Fab, V domains shown)
VH: QVQLVESGGGVVQPGRSLRLSCAASGFTFRSYVMHWVRQAPGKGLEWVAVISHEGSLKYYADSVKGRFTISRDNSKNTLYLQMNSLRAEDTAVYYCARPRIAARRGGFGYWGQGTLVTVSS
VL: NFMLTQPHSVSESPGKTVTISCTRSSGNIDNNYVQWYQQRPGSSPTTVIYEDNQRPSGVPDRFSGSIDSSSNSASLTISGLKTEDEADYYCQSYDYDTQGVVFGGGTKLTVL
notes: Fab of Ab42; also called Ab42 Fab; Ab42 (monovalent, Fab)
binds: all assays above
